Results published in paper PMC10845154.
These are yes or no findings as the source states them, for the method shown. Binding seen in cells or lysates may run through a third protein. Some results given as binding are weak or reduced against the parent protein; the word gives no strength.

T1: ISOFLAVONE SYNTHASE2 (GmIFS2) (soybean (Glycine max)) (UniProt Q9SWR5)
T1 sequence: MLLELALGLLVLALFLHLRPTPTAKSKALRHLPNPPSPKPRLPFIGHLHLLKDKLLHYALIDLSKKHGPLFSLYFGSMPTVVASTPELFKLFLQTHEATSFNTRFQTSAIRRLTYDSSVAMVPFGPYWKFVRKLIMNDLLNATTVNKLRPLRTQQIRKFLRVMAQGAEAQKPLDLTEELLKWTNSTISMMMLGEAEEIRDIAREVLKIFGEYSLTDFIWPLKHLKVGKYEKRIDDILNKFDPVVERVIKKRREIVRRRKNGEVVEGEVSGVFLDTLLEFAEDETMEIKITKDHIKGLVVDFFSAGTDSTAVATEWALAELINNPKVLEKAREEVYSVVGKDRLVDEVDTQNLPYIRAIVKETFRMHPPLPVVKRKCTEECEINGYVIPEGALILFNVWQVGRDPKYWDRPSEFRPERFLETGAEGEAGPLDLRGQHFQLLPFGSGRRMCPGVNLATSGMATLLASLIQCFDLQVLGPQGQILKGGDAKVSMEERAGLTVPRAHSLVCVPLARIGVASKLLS


Assays:
[1] = target: T1, ISOFLAVONE SYNTHASE2 (GmIFS2) (soybean (Glycine max)); experiment: split reporter; BiFC, reciprocal combination: GmADT-YN co-expressed with GmIFS2-YC in N. benthamiana leaves, confocal microscopy 48 h post-infiltration (Supplementary Figure 1)
[2] = target: T1, ISOFLAVONE SYNTHASE2 (GmIFS2) (soybean (Glycine max)); experiment: split reporter; BiFC: GmADT-YC (or AtADT5, PvMATE8-YC, AtCRA1-YC) co-expressed with GmIFS2-YN in N. benthamiana leaves, 1:1 (v/v) co-infiltration, 35S promoter, confocal microscopy 48 h post-infiltration (Figure 7)

| Binder | binding [1] | binding [2] |
| --- | --- | --- |
| Arabidopsis ADT, AtADT5 (enzyme, UniProt Q9FNJ8 39-425) CSYRSESFSFPNGVGSSRADWQSSCAILASKVVSAENSSSVAVVNGHSNGSVDLSLVPSKSQHNGKPGLIQPLTITDLSPAPSHGSTLRVAYQGVPGAYSEAAAGKAYPNSEAIPCDQFDVAFQAVELWIADRAVLPVENSLGGSIHRNYDLLLRHRLHIVGEVQIPVHHCLLALPGVRTDCITRVISHPQALAQTEGSLNKLTPKAAIEAFHDTAAAAEYIAANNLHDTAAVASARAAELYGLQILADGIQDDAGNVTRFLMLARDPIIPRTDRPFKTSIVFAAQEHKGTSVLFKVLSAFAFRNISLTKIESRPHQNCPVRVVGDENVGTSKHFEYTFYVDFEASMAEARAQNALAEVQEYTSFLRVLGSYPMDMTPWSTLPSEDV | binds | binds |
| Arabidopsis seed storage protein CRUCIFERIN1 (AtCRA1) (protein, UniProt P15455 25-472) QGQQGQQFPNECQLDQLNALEPSHVLKSEAGRIEVWDHHAPQLRCSGVSFARYIIESKGLYLPSFFNTAKLSFVAKGRGLMGKVIPGCAETFQDSSEFQPRFEGQGQSQRFRDMHQKVEHIRSGDTIATTPGVAQWFYNDGQEPLVIVSVFDLASHQNQLDRNPRPFYLAGNNPQGQVWLQGREQQPQKNIFNGFGPEVIAQALKIDLQTAQQLQNQDDNRGNIVRVQGPFGVIRPPLRGQRPQEEEEEEGRHGRHGNGLEETICSARCTDNLDDPSRADVYKPQLGYISTLNSYDLPILRFIRLSALRGSIRQNAMVLPQWNANANAILYVTDGEAQIQIVNDNGNRVFDGQVSQGQLIAVPQGFSVVKRATSNRFQWVEFKTNANAQINTLAGRTSVLRGLPLEVITNGFQISPEEARRVKFNTLETTLTHSSGPASYGRPRVAAA |  | no binding |
